Data source: PubChem BioAssay AID504744 (Drosophila RNAi Screening Center, 2011)
Test: 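Identify dsRNAs that increase or decrease phospho-dAkt after insulin treatment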 (primary screen). Cell system: Drosophila Kc167 cells. Reagents: long dsRNA against Drosophila genes, 250 ng dsRNA per well of a 384-well plate. Time to read-out: 3 days of knock-down, then overnight serum-free starvation before stimulation. Challenge: bovine insulin at 387 nM for 10 minutes after 12 h without serum. Detection: 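Per-well phospho-dAkt level from an in-cell fluorescent antibody stain, divided by a DNA-dye signal; log2 residuals turned into z-scores that take cell number into account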. Active means: 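Hit in the insulin screen when the two-replicate mean z-score is more extreme than plus or minus 2.5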.
In all, the deposit lists about 23,000 reagents; this is an unselected part of those that have a named target and a result. Over the whole deposit, 98 (0.43%) are marked active. 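Only hit calls are given; the phospho-dAkt signals, z-scores and hit direction were not deposited.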 No sequences are given here.

mRpS14 [DRSC19444] gave inactive.
With knock-down of l(1)G0289 [DRSC18215], the record shows inactive.
With knock-down of lgs [DRSC17152] the results were inactive.
Silencing of CG18735 [DRSC04312] gave: inactive.
With knock-down of CG9040 [DRSC11053] the results were inactive.
Knock-down of pnr [DRSC17027] gave: inactive.
CG31327 [DRSC13019] showed inactive.
Against tsr [DRSC04718] the deposit lists inactive.
For Vha16-1 [DRSC05020] the deposit lists inactive.
Whamy [DRSC14574] showed inactive.
With knock-down of S-Lap2 [DRSC10628], the record shows inactive.
With knock-down of orion [DRSC18213], the record shows inactive.
Silencing of orion [DRSC18214] came out at: inactive.
After knock-down of RNASEK [DRSC21641], the record shows inactive.
After knock-down of SelG [DRSC19808] the results were inactive.
Silencing of ND-20L [DRSC15414] gave: inactive.
With knock-down of CG33342 [DRSC13662] the results were inactive.
Grl65a [DRSC08837] scored inactive.
With knock-down of Tsp5D [DRSC18380], the record shows inactive.
Fhos [DRSC08943] scored inactive.
Knock-down of Fhos [DRSC10545] gave: inactive.
Silencing of Fhos [DRSC10546] resulted in: inactive.
Knock-down of Fhos [DRSC10547] resulted in: inactive.
orb [DRSC17021] gave inactive.

Quoted from above, 7 entries:
CG18735 [DRSC04312] — call = inactive
CG9040 [DRSC11053] — call = inactive
pnr [DRSC17027] — call = inactive
CG31327 [DRSC13019] — call = inactive
tsr [DRSC04718] — call = inactive
Vha16-1 [DRSC05020] — call = inactive
Whamy [DRSC14574] — call = inactive

The list goes on:
For EMC8-9 [DRSC04380], the values are inactive.
prg [DRSC03324] showed inactive.
Knock-down of Pi3K92E [DRSC16788] came out at: inactive.
Cyp9c1 [DRSC04607] scored inactive.
With knock-down of serp [DRSC11035] the results were inactive.
For serp [DRSC11036], the values are inactive.
For Sas-4 [DRSC12505], the entry reads inactive.
Acph-1 [DRSC14103] gave inactive.
For sqh [DRSC18837] the deposit lists inactive.
RhoGAP5A [DRSC18294] showed inactive.
Depletion of Arp6 [DRSC19326] came out at: inactive.
Silencing of ens [DRSC08454] came out at: inactive.
Against Fak [DRSC07426], the entry reads inactive.
Against CG34393 [DRSC00419], the values are inactive.
Against CG34393 [DRSC00710] the deposit lists inactive.
